{"source": "PubChem BioAssay AID485314", "about": "(National Center for Advancing Translational Sciences (NCATS), 2010)", "note": "Screen size: about 340,000 compounds; about 4,500 (1.3%) were called active. The shares of active, inactive and inconclusive entries below differ from those in the screen. Calls follow the shape of the dose curve; as a rule, active = well fitted inhibition curve with a large enough effect; inconclusive = small, poorly fitted or top-dose-only effect, or another doubt; inactive = no such curve, though single readings can be large or run the other way. Potencies of inconclusive entries are doubtful fits and often do not repeat. % is scaled to controls: 0 for no effect and ±100 for the full control effect; potency is read from the fitted curve at half-maximal effect."}
{"target": "DNA polymerase beta (Homo sapiens) (UniProt P06746)", "test": "qHTS Assay for Inhibitors of DNA Polymerase Beta", "settings": "Pol beta primer extension/strand displacement, fluorescence kinetic; activity change, negative = inhibition: at 114 µM (top of the series)", "procedure,_shortened": "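Curves were derived by four-parameter Hill fits of normalized qHTS data. The kinetic fluorescent primer-extension read was taken at 0 and 10 min after 50 nM substrate, following a 15 min room-temperature preincubation of 10 nM enzyme with compounds.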"}
{"smiles": "CCCCC1CCC(C(=O)N2CC(=O)Nc3ccc(C)cc3C2c2ccc(F)cc2)CC1", "note": "(stereo not given)", "activity change, negative = inhibition": "inactive: 0.881%"}
{"smiles": "COc1ccc(NC(=O)c2c(NC(=O)C(F)(F)F)sc3c2CCCCC3)cc1", "activity change, negative = inhibition": "inconclusive: -43.7% [inhibitor]"}
{"smiles": "O=C(O)COc1ccc(/C=N/Nc2nc(Nc3ccccc3)nc(N3CCCCC3)n2)cc1", "Potency": "inconclusive: 100 µM [inhibitor, single point]"}
{"smiles": "c1coc(-c2nc(-c3ccco3)c(-c3ccco3)nc2-c2ccco2)c1", "Potency": "active: 2.51 µM"}
{"smiles": "COC(=O)C1=C(C)N(c2ccccc2)/C(=C/c2cccs2)C1=O", "Potency": "inconclusive: 7.94 µM [inhibitor, full curve, poor fit]"}
{"smiles": "O=C1CC(c2ccccc2)Oc2cc(O)cc(O)c21", "note": "(stereo not given)", "activity change, negative = inhibition": "inactive: 16.6%"}
{"smiles": "O=S(=O)(Nc1nc(-c2ccccc2)cs1)c1cc(Cl)ccc1Cl", "Potency": "active: 44.7 µM"}
{"smiles": "CCCCN1CC(c2nc3ccccc3n2CCCCOc2cc(C)cc(C)c2)CC1=O", "note": "(stereo not given)", "Potency": "inconclusive: 79.4 µM [inhibitor, single point]"}
{"smiles": "c1coc(-c2nnc(-c3ccc4c(c3)OCO4)o2)c1", "Potency": "inconclusive: 10 µM [inhibitor, full curve]"}
{"smiles": "O=C(Nc1ccc(S(=O)(=O)Nc2ncccn2)cc1)c1ccc(N2CCCC2=O)cc1", "activity change, negative = inhibition": "inconclusive: -84.3% [inhibitor]"}
{"smiles": "COCCCNC(=O)CN1C(=O)c2cccnc2Sc2ccccc21", "activity change, negative = inhibition": "inactive: -14.6%"}
{"smiles": "COc1cc(NS(=O)(=O)c2cccc3nsnc23)c(C(=O)O)cc1OC", "Potency": "inconclusive: 100 µM [inhibitor, single point]"}
{"smiles": "CNC(=O)c1ccsc1NC(=O)c1ccc(S(=O)(=O)N2CCCc3ccccc32)cc1", "Potency": "inconclusive: 89.1 µM [inhibitor, single point]"}
{"smiles": "COc1ccccc1N1CCN(C(=O)c2cc(-c3ccc(C)c(F)c3)on2)CC1", "activity change, negative = inhibition": "inactive: 3.24%"}
{"smiles": "COc1cccc(-c2nc(CS(=O)(=O)CC(=O)N3CCN(c4ccccn4)CC3)c(C)o2)c1", "Potency": "inconclusive: 89.1 µM [inhibitor, single point]"}
{"smiles": "O=C(N/N=C/c1ccc(Cl)cc1)c1cc2c(s1)-c1ccccc1CC2", "Potency": "inconclusive: 12.6 µM [inhibitor, partial curve]"}
{"smiles": "Cc1nc2ccc(C(=O)N/N=C/c3cc([N+](=O)[O-])ccc3O)cc2[nH]1", "Potency": "inconclusive: 39.8 µM [inhibitor, single point]"}
{"smiles": "O=S(=O)(NCc1ccccc1Cl)c1ccc(-n2cccn2)cc1", "activity change, negative = inhibition": "inconclusive: -34% [inhibitor]"}
{"smiles": "Cc1ccc(S(=O)(=O)Nc2ccc3oc(=O)sc3c2)c(C)c1", "Potency": "inconclusive: 8.91 µM [inhibitor, full curve, poor fit]"}
{"smiles": "O=C(c1cc(-c2ccco2)nn1-c1cccc(Cl)c1)N1CCCCC1", "Potency": "inconclusive: 20 µM [inhibitor, full curve]"}
{"smiles": "Cn1ccc(=S)c2ccccc21", "activity change, negative = inhibition": "inactive: -7.5%"}
{"smiles": "COc1ccc(OC)c(NC(=O)CS(=O)(=O)c2ccccc2)c1", "Potency": "inconclusive: 89.1 µM [inhibitor, single point]"}
{"smiles": "NNc1nc2c(Cl)c(Cl)ccc2s1", "Potency": "inconclusive: 8.91 µM [inhibitor, partial curve]"}
{"smiles": "OCCCN1CCN(CCOc2ccccc2-c2ccccc2)CC1", "Potency": "inconclusive: 100 µM [inhibitor, single point]"}
{"smiles": "Cc1cccc(CSc2nc3c(sc4ccccc43)c(=O)n2CCC(=O)NC(C)C)c1", "Potency": "active: 25.1 µM"}
{"smiles": "CCN(CC)c1ccc(C2C3CCCCC3(O)CCN2CC(=O)N2CCCCC2)cc1", "note": "(stereo not given)", "Potency": "inconclusive: 22.4 µM [inhibitor, partial curve, poor fit]"}
{"smiles": "Cc1nc(N2N=C(c3ccc(Cl)cc3)CC2c2ccco2)sc1C(=O)N(C)C", "note": "(stereo not given)", "Potency": "inconclusive: 79.4 µM [inhibitor, partial curve, poor fit]"}
{"smiles": "Oc1ccc(Nc2nc3ccccc3n3cnnc23)cc1", "activity change, negative = inhibition": "inactive: -1.62%"}
{"smiles": "COc1cc(C(=O)Nc2nc(C)cc(C)n2)cc(OC)c1OC", "Potency": "inconclusive: 89.1 µM [inhibitor, single point]"}
{"smiles": "Cc1ccc(-n2c(C)cc(C(=O)COc3c(CO)cc(F)cc3CO)c2C)cc1C", "Potency": "inconclusive: 100 µM [inhibitor, single point]"}
{"smiles": "O=C(c1ccc2c3n(nc2c1)-c1ccccc1CO3)N1CCCCC1", "activity change, negative = inhibition": "inactive: 5.22%"}
{"smiles": "CCC(Sc1nc(-c2ccccc2)cc(=O)[nH]1)C(=O)O", "note": "(stereo not given)", "Potency": "inconclusive: 39.8 µM [inhibitor, single point]"}
{"smiles": "Clc1ccc(-c2nnc(CNC3CC3)o2)cc1", "Potency": "inconclusive: 89.1 µM [inhibitor, single point]"}
{"smiles": "COc1ccc(C(CC(=O)O)NC(=O)c2cc3ccccc3oc2=O)cc1OC", "note": "(stereo not given)", "activity change, negative = inhibition": "inactive: 6.84%"}
{"smiles": "Cc1ccc(C)c(NC(=O)CN2C(=O)c3cccc4cccc2c34)c1", "Potency": "inconclusive: 7.08 µM [inhibitor, partial curve]"}
{"smiles": "Cc1cccc(Cn2ccn(Cc3ccc(Cl)cc3)c(=O)c2=O)c1", "Potency": "active: 25.1 µM"}
{"smiles": "O=C(CSc1nc(-c2cccc(Cl)c2)nc2cc(=O)[nH]n12)Nc1ccccc1", "Potency": "active: 20 µM"}
{"smiles": "CCN1/C(=C/c2cc[n+](C)cc2)C=Cc2cc(C)ccc21", "Potency": "active: 22.4 µM"}
{"smiles": "Cc1csc(SCC(=O)Nc2sc3c(c2C#N)CCC3)n1", "Potency": "active: 20 µM"}
{"smiles": "COc1ccc(NC(=O)c2ccc(F)cc2)cc1S(=O)(=O)Nc1cc(C)ccc1Br", "Potency": "inconclusive: 1.58 µM [inhibitor, full curve]"}
{"smiles": "CC(C)=CCN1CCN(Cc2ccc3nsnc3c2)CC1CCO", "note": "(stereo not given)", "activity change, negative = inhibition": "inactive: 7.79%"}
{"smiles": "CNc1oc(-c2ccc(C)cc2)nc1P(=O)(c1ccccc1)c1ccccc1", "Potency": "inconclusive: 35.5 µM [inhibitor, single point]"}
{"smiles": "Cc1nc2ccc(C(=O)N/N=C/c3ccccc3O)cc2[nH]1", "Potency": "active: 20 µM"}
{"smiles": "C=CCNC(=O)C(C)N1c2cccc3cccc(c23)S1(=O)=O", "note": "(stereo not given)", "Potency": "inconclusive: 70.8 µM [inhibitor, single point]"}
{"smiles": "O=C(Nc1cc(C(F)(F)F)ccc1N1CCOCC1)c1cccnc1", "Potency": "inconclusive: 89.1 µM [inhibitor, single point]"}
{"smiles": "COc1ccccc1N1CCN(C(=O)C2CCN(S(=O)(=O)c3c(C)noc3/C=C/c3ccc(C)cc3)CC2)CC1", "Potency": "inconclusive: 0.708 µM [inhibitor, full curve, poor fit]"}
{"smiles": "Cc1ccc(Cn2c(SCCN3CCCCC3)nc3c2c(=O)[nH]c(=O)n3C)cc1", "Potency": "inconclusive: 79.4 µM [inhibitor, single point]"}
{"smiles": "CC(C)(C)c1ccc(C(=O)NCCOc2ccccc2)cc1", "Potency": "inconclusive: 0.316 µM [inhibitor, full curve, poor fit]"}
{"smiles": "O=C(N/N=C/c1ccc(OC(=O)c2ccccc2Cl)cc1)c1ccccn1", "Potency": "inconclusive: 3.16 µM [inhibitor, full curve]"}
{"smiles": "Cc1ccc(-n2nc3ccc(NC(=O)c4oc5ccc(C)cc5c4C)cc3n2)cc1", "activity change, negative = inhibition": "inconclusive: -66.4% [inhibitor]"}
{"smiles": "O=C(COc1ccc(/C=N/NC(=O)c2ccncc2)cc1)Nc1ccc([N+](=O)[O-])cc1", "activity change, negative = inhibition": "inactive: 23.5%"}
{"smiles": "COc1ccc(CCNC(=O)CCC2COc3ccccc3O2)cc1OC", "note": "(stereo not given)", "Potency": "inconclusive: 3.98 µM [inhibitor, full curve]"}
{"smiles": "CCCCn1c(SCC(=O)NCc2ccco2)nc2ccc(N3CCOCC3)cc2c1=O", "Potency": "inconclusive: 25.1 µM [inhibitor, full curve, poor fit]"}
{"smiles": "COc1ccc(CCNC(=O)CSc2ccsc2[N+](=O)[O-])c(OC)c1", "Potency": "inconclusive: 15.8 µM [inhibitor, full curve]"}
{"smiles": "O=C(N/N=C/c1ccncc1)c1cccc(N/N=C/c2ccncc2)c1", "Potency": "inconclusive: 89.1 µM [inhibitor, single point]"}
{"smiles": "O=C(Nc1ccccc1Cl)c1ccccc1Oc1ccc(C(F)(F)F)cc1[N+](=O)[O-]", "Potency": "inconclusive: 31.6 µM [inhibitor, single point]"}
{"smiles": "CCOC(=O)C1CCN(S(=O)(=O)c2ccc(NC(=O)c3ccco3)cc2)CC1", "Potency": "inconclusive: 22.4 µM [inhibitor, full curve, poor fit]"}
{"smiles": "Cn1cccc1CC(=O)N/N=C\\c1c2ccccc2cc2ccccc12", "activity change, negative = inhibition": "inactive: -14.1%"}
{"smiles": "CCCN1C(=O)C(O)(CC(=O)c2ccc(OC)c(OC)c2)c2ccccc21", "note": "(stereo not given)", "Potency": "inconclusive: 0.282 µM [inhibitor, partial curve]"}
{"smiles": "CCCc1cc(C(=O)NCc2ccccc2)no1", "Potency": "inconclusive: 89.1 µM [inhibitor, single point]"}
{"smiles": "C=CCNC(=O)C1CC2Cn3c(nc4cc5ccccc5cc43)C2N1C", "note": "(stereo not given)", "activity change, negative = inhibition": "inconclusive: -83.7% [inhibitor]"}
{"smiles": "O=C(Nc1ccc2nc(SCCOc3ccccc3)sc2c1)c1cccs1", "Potency": "inconclusive: 89.1 µM [inhibitor, single point]"}
{"smiles": "CCc1ccc(/C=C/C(=O)C2C(=O)c3ccccc3C2=O)cc1", "activity change, negative = inhibition": "inactive: -12.9%"}
{"smiles": "CCOc1cccc(/C=N/N2C(=O)CSC2=S)c1O", "Potency": "inconclusive: 3.16 µM [inhibitor, single point]"}
{"smiles": "Cc1cc(-c2ccc(C)c(S(=O)(=O)Nc3ccccc3C(F)(F)F)c2)on1", "Potency": "inconclusive: 89.1 µM [inhibitor, single point]"}
{"smiles": "Cc1ccc2c(CC(=O)NCc3ccccc3)coc2c1C", "activity change, negative = inhibition": "inactive: 6.75%"}
{"smiles": "O=C(CNC(=O)c1cccc(F)c1)N/N=C/c1cccs1", "Potency": "inconclusive: 79.4 µM [inhibitor, single point]"}
{"smiles": "O=Cc1cn(-c2ccccc2)nc1-c1ccc(F)cc1", "Potency": "inconclusive: 0.355 µM [inhibitor, full curve, poor fit]"}
{"smiles": "COc1cccc(C(=O)Nc2ccc(S(=O)(=O)Nc3nccc(C)n3)cc2)c1", "Potency": "inconclusive: 89.1 µM [inhibitor, single point]"}
{"smiles": "COc1ccc(CCNC(=O)c2ccc(N3CCCC3=O)cc2)cc1OC", "Potency": "inconclusive: 89.1 µM [inhibitor, single point]"}
